# Test results from PubChem BioAssay AID328 (DTP/NCI, 2004).
# The list shows only some results of the screen, not a fair sample: it is rich in T/C values a quarter to a half above the control, in often repeated tests (any T/C) and in doses without a T/C. Further doses and runs are listed elsewhere. T/C gives the treated animals as a percentage of the vehicle group. Some doses have a count of surviving animals in place of a T/C: the source files T/C as zero there, which appears to mark a toxic dose or a test without result, not a measured value. Some survivor counts are full or nearly so, which does not show that the dose was tolerated: survival well below the control is almost never listed, so the zero probably covers shortened survival too. Survivors were counted at the toxicity check, usually on the fifth day, unless a day is given; later deaths do not show. Schedules are NCI's codes, read here as Q, the interval in days (D) or hours (H), X, the number of doses. Some schedules carry Z or #; the key to these is not given. Some structures stand for samples that the source files as different forms (salt, stereo form or complex); doses refer to the form tested. Some entries hold several experiments; the results are listed from low to high. Signs of the kind (2×) stand for listed records that agree. Where survival is the endpoint, the PubChem record calls one and a half times the control and up active, and a quarter to a half above the control has no call in these data; cut-offs in other NCI protocols can differ. Some T/C values are followed by the survivors on the day toxicity was checked, most often the fifth; without a count, all were alive then.
# Test system: BDF1 mice, P388 leukemia ip, median survival T/C
# Assay: NCI In Vivo Anticancer Drug Screen. Data for tumor model P388 Leukemia (intraperitoneal) in B6D2F1 (BDF1) mice
# Conditions: T/C endpoint: median survival time, higher T/C = longer survival
# Outline: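 Compound-treated tumour-bearing mice were compared with vehicle-treated controls. Survival was recorded, and the value is the treated-group measurement divided by the control-group measurement (T/C).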
# [1] = dose: 1.5 mg/kg/injection, schedule: Q01DX010 (ip), vehicle: saline
# [2] = dose: 2.0 mg/kg/injection, schedule: Q01DX010 (ip), vehicle: saline
structure (smiles),measurement,setting,value
CO[C@H](C(=O)[C@@H](O)[C@@H](C)O)[C@@H]1Cc2cc3cc(OC4CC(OC5CC(O)C(O)C(C)O5)C(O)C(C)O4)c(C)c(O)c3c(O)c2C(=O)[C@H]1OC1CC(OC2CC(OC3CC(C)(O)C(O)C(C)O3)C(O)C(C)O2)C(O)C(C)O1 (stereo partly drawn),T/C,"dose: 1.0 mg/kg/injection, schedule: Q01DX010 (ip), vehicle: saline, run until all animals had died","109, 145, 186, 190, 222, 254 % of control"
same,survivor count,"dose: 1.0 mg/kg/injection, schedule: Q01DX010 (ip), vehicle: water","0 of 6, 1 of 6, 2 of 6, 3 of 6, 4 of 6, 5 of 6"
same,survivor count,"dose: 1.0 mg/kg/injection, schedule: Q01DX010 (oral), vehicle: water",5 of 6
same,survivor count,"dose: 1.0 mg/kg/injection, schedule: Q01DX015 (ip), vehicle: water",0 of 6
same,survivor count,"dose: 1.0 mg/kg/injection, schedule: Q02DX005 (ip), vehicle: water",3 of 6
same,survivor count,"dose: 1.0 mg/kg/injection, schedule: Q#A X005 (ip), vehicle: saline",6 of 7
same,survivor count,"dose: 1.5 mg/kg/injection, schedule: Q01DX005 (ip), vehicle: water",0 of 8
same,T/C,[1],130 % of control [5 of 6 alive]
same,survivor count,[1],6 of 7
same,survivor count,"dose: 1.5 mg/kg/injection, schedule: Q01DX010 (ip), vehicle: water",0 of 6 and 2 of 6
same,survivor count,"dose: 1.5 mg/kg/injection, schedule: Q01DX010 (oral), vehicle: water",1 of 6
same,survivor count,"dose: 1.5 mg/kg/injection, schedule: Q01DX015 (ip), vehicle: water",1 of 6
same,survivor count,"dose: 1.5 mg/kg/injection, schedule: Q02DX005 (ip), vehicle: water",3 of 6
same,survivor count,"dose: 2.0 mg/kg/injection, schedule: Q01DX001 (im), vehicle: water",2 of 4
same,survivor count,"dose: 2.0 mg/kg/injection, schedule: Q01DX001 (ip), vehicle: saline",4 of 10
same,survivor count,"dose: 2.0 mg/kg/injection, schedule: Q01DX001 (ip), vehicle: water",0 of 4
same,survivor count,"dose: 2.0 mg/kg/injection, schedule: Q01DX005 (ip), vehicle: saline",0 of 10
same,survivor count,"dose: 2.0 mg/kg/injection, schedule: Q01DX009 (ip), vehicle: clinical formulation",1 of 6
same,survivor count,"dose: 2.0 mg/kg/injection, schedule: Q01DX009 (ip), vehicle: saline",0 of 10 (2×)
same,T/C,[2],86 % of control [4 of 6 alive]
same,survivor count,[2],"1 of 7, 2 of 10, 2 of 6, 3 of 6, 6 of 10, 9 of 10, 10 of 10"
same,survivor count,"dose: 2.0 mg/kg/injection, schedule: Q01DX010 (oral), vehicle: water",1 of 6
same,survivor count,"dose: 2.0 mg/kg/injection, schedule: Q02DX005 (ip), vehicle: water",3 of 6
same,survivor count,"dose: 2.0 mg/kg/injection, schedule: Q04DX003 (ip), vehicle: saline",6 of 10 and 5 of 7
same,survivor count,"dose: 2.0 mg/kg/injection, schedule: Q#A X005 (ip), vehicle: saline",1 of 7
same,survivor count,"dose: 2.5 mg/kg/injection, schedule: Q01DX010 (oral), vehicle: water",5 of 6
same,survivor count,"dose: 3.0 mg/kg/injection, schedule: Q01DX001 (ip), vehicle: water",0 of 4
same,survivor count,"dose: 3.0 mg/kg/injection, schedule: Q01DX010 (ip), vehicle: saline",0 of 7 and 2 of 6
same,survivor count,"dose: 3.0 mg/kg/injection, schedule: Q04DX003 (ip), vehicle: water",2 of 8
same,survivor count,"dose: 4.0 mg/kg/injection, schedule: Q01DX001 (ip), vehicle: saline",0 of 10 and 0 of 7
same,survivor count,"dose: 4.0 mg/kg/injection, schedule: Q04DX003 (ip), vehicle: saline",0 of 10 and 1 of 7
same,survivor count,"dose: 6.0 mg/kg/injection, schedule: Q01DX010 (ip), vehicle: saline",0 of 6 and 0 of 7
same,survivor count,"dose: 8.0 mg/kg/injection, schedule: Q01DX001 (ip), vehicle: saline",0 of 7
same,survivor count,"dose: 8.0 mg/kg/injection, schedule: Q04DX003 (ip), vehicle: saline",0 of 7
same,survivor count,"dose: 16.0 mg/kg/injection, schedule: Q01DX001 (ip), vehicle: saline",0 of 7
same,survivor count,"dose: 100.0 mg/kg/injection, schedule: Q01DX010 (ip), vehicle: water",6 of 6
same,survivor count,"dose: 16.3 micrograms/kg/injection, schedule: Q03HX008 (ip), vehicle: saline",6 of 10
same,survivor count,"dose: 16.3 micrograms/kg/injection, schedule: Q04DX024 (ip), vehicle: saline",5 of 10
same,survivor count,"dose: 31.3 micrograms/kg/injection, schedule: Q03HX008 (ip), vehicle: saline",3 of 10
same,survivor count,"dose: 31.3 micrograms/kg/injection, schedule: Q04DX024 (ip), vehicle: saline",2 of 10
same,survivor count,"dose: 62.5 micrograms/kg/injection, schedule: Q03HX008 (ip), vehicle: saline",0 of 10
same,survivor count,"dose: 62.5 micrograms/kg/injection, schedule: Q04DX024 (ip), vehicle: saline",0 of 10
same,T/C,"dose: 216.0 micrograms/kg/injection, schedule: Q01DX005 (ip), vehicle: water",132 % of control
same,T/C,"dose: 250.0 micrograms/kg/injection, schedule: Q01DX010 (ip), vehicle: saline",127 % of control
same,T/C,"dose: 360.0 micrograms/kg/injection, schedule: Q01DX005 (ip), vehicle: water",131 % of control
same,T/C,"dose: 500.0 micrograms/kg/injection, schedule: Q01DX010 (ip), vehicle: saline",145 % of control
same,T/C,"dose: 600.0 micrograms/kg/injection, schedule: Q01DX005 (ip), vehicle: water",143 % of control
same,T/C,"dose: 1000.0 micrograms/kg/injection, schedule: Q01DX005 (ip), vehicle: water",130 % of control [7 of 8 alive]
